For this series, the target named is T1, RsrR (Acidithiobacillus caldus MTH-04) (UniProt A4ZV27).
T1 sequence (looked up): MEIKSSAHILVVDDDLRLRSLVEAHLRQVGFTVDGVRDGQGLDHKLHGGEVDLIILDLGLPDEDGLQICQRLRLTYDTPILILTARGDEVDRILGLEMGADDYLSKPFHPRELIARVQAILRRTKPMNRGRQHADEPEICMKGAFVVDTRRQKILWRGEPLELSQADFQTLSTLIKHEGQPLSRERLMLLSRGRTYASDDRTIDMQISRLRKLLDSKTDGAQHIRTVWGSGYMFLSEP
The series can be described thus: EMSA. The settings on record: 1 ug RsrR, 200 ng DNA, 1 ug salmon sperm DNA, 15 uL, 1x Binding Buffer (composition not given), room temperature 20 min + 20 min, 6.5% native PAGE in 0.25x TBE on ice, recombinant protein, residues 1-238, label: none (ethidium bromide stain), probe letters rebuilt from the primers and the genome.

Negatives hold for the conditions tested. Protein sequences can lack the tags named with them.

This note sets out measurements from publication PMC5093147.

Regarding “CGCAATATTCTGCGGGCGGTCTATGAAGCCGAGCGGCAGAACGAGATTCAGATCGTCGCCATCAACGATCTCGGCAGCCCGGAGACCAATGCCCATCTGACCCAGTACGACTCGGTACACGGCCGCTTTCCCTTCCCCGTCAGCGTCGAGGGGCAGGAGATGTTGGTGGGCAAGGATCGCGTGCGGGTTCTGGCGGAGCGGGATCCGAGCAAGCTGCCCTGGGGTGACCTGGGGGTGGACGTGGTGCTGGAGTGCACCGGCATCTTCACCACCCGCGAAAAGGCGTCGCTGCACATCCAGGGTGGCGCCAAGAAGGTCCTGATCTCCGCCCCGGCCAAGGATCCGGTGGACCTTACCGTAAATTGTAACACCTGTTACACCTGTTACAACTTGTTACATAAGCTAAAACTTATATGCA (double strand) [G360+58IRS]”, the binding result is listed as “binds”. Turning to “GATATATAATCTCCGAATCGCTAATACGTTGTCTAGGGGCATAACTACGCCGCGCTTCGGATAGTATACTCGGGGCCCATAGGAGACAATTGCATATAAGTTTTAGCTTATGTAACAAGTTGTACAATTTACGTGCGTTGAATTCCTGTCTCTGTGCCGATGTTACTCCATCTTGTACTCTCGGAAGGCAAATGGTTGCCGCCAGCCCATCCTCTGATGTGAAATGCAAAGAGCCCTTGTGCAATGCCATGATGCGATGACAAATCATCAACCCGATTCCCATCCCATGTCCGGGTTGCCGAGCAGACTCGCCACTGTTCATTCTGTACACAATCGGCGCT (double strand) [T360Δ19]”, the binding result was “no binding”.
